Reference: US20210163923A1
Results are given in words; binding and its absence hold for the method and conditions named. Binding can be weak; no strength is given.

Key:
[1] = molecular target: Hsp90 conjugated with DyLight 633; assay: flow cytometry, IgG displayed on HEK293 cells
[2] = molecular target: Hsp70 conjugated with DyLight 633; assay: flow cytometry, IgG displayed on HEK293 cells
[3] = molecular target: Hsp70 conjugated with DyLight 633; assay: flow cytometry, IgG displayed on HEK293 cells, Hsp70-DyLight 633 (column Chaperones)
[4] = molecular target: Hsp90 conjugated with DyLight 633; assay: flow cytometry of HEK293 cells displaying the IgG, stained with Hsp90-DyLight 633
[5] = molecular target: Hsp90 conjugated with DyLight 633; assay: flow cytometry, IgG displayed on HEK293 cells, Hsp90-DyLight 633 (column Chaperones)
[6] = molecular target: Hsp70 conjugated with DyLight 633; assay: flow cytometry of HEK293 cells displaying the IgG, double-stained with Hsp70-DyLight 633 and anti-human Fc PE
[7] = molecular target: Hsp90 conjugated with DyLight 633; assay: flow cytometry of HEK293 cells displaying the IgG, double-stained with Hsp90-DyLight 633 and anti-human Fc PE
[8] = molecular target: Hsp70 conjugated with DyLight 633; assay: flow cytometry of HEK293 cells displaying the IgG, stained with Hsp70-DyLight 633

binding [1]: binds
binding [2]: binds
binding [3]: binds
binding [4]: binds
binding [5]: binds
binding [6]: binds
binding [7]: binds
binding [8]: binds
B1: Briakinumab (antibody, V domains shown)
VH: QVQLVESGGGVVQPGRSLRLSCAASGFTFSSYGMHWVRQAPGKGLEWVAFIRYDGSNKYYADSVKGRFTISRDNSKNTLYLQMNSLRAEDTAVYYCKTHGSHDNWGQGTMVTVS
VL: QSVLTQPPSVSGAPGQRVTISCSGSRSNIGSNTVKWYQQLPGTAPKLLIYYNDQRPSGVPDRFSGSKSGTSASLAITGLQAEDEADYYCQSYDRYTHPALLFGTGTKVTVLGQP
